# Source: US8889615B2, “Methods for promoting epithelialization and healing of chronic wounds” (New York University, priority 2009, dated 2014)
# At least one structure is not confirmed: it was looked up by name or label, or the drawing left a doubt.
# How the values were obtained:
# GSK3β = GSK3β mRNA and protein levels after GCs treatment; type: cell-based
# β-catenin [1] = settings: mammary tumor epithelial cells; cited from earlier work
# [2] = system: LEF/TCF-mediated transcription; assay: SuperTopFlash Tcf/Lef luciferase reporter assay in primary human keratinocytes; type: cell-based; settings: agent alone; Dexamethasone 1 μM, 24 hours
# Experimental: Primary human keratinocytes were plated into 6-well plates and grown to 70% confluence in defined serum-free keratinocyte medium supplemented with epidermal growth factor and bovine pituitary extract (keratinocyte-SFM, GIBCO). Prior to transfection cells were transferred to basal serum—free medium (GIBCO) for 6 h, and then transfected with Tcf/Lef transcriptional activation reporter construct SuperTopFlash (Masckauchán, Mol. Biol. Cell, 17(12):5163-5172 (2006)) containing Tcf responsive elements and renilla-luciferase construct. Transfections were performed in triplicates using 3 μg of reporter plasmid, 0.2 μg of renilla-luciferase plasmid with a FuGene 6 transfection reagent (Roche), following manufacturer's instructions for procedure. Cells were incubated at 37° C. for over night with transfection cocktail and than treated with Dexamethasone (1 μM), RU486 (10 μM) and Calphostine C (200 nM) for 24 hours. Cell lysates were prepared the next day and both firefly and renilla luciferase activities were evaluated using Dual-Luciferase Reporter Assay System (Promega, Madison, Wis.). Samples were read in a luminometer and values were normalized for transfection efficiency using renilla-luciferase activity.
# wounded human skin = assay: Human skin wound model, topical treatment, epithelialization by planimetry; type: cell-based; settings: topical DEX 1 μM, 6 days
# Experimental: Wounds were created using 4-mm punch biopsies through the reticular dermis and incubated on the air-liquid interface, as previously described. Immediately upon wounding cells were treated topically with dexamethasone (DEX) (1 μM), Calphostine C (CC) (200 μM) and the combination, DEX+CC and maintained on the air-liquid interface for 6 days. All specimens were frozen in OCT compound (Tissue Tek, Reading; Calif.) for immunocytochemistry. Wounds were quantified by planimetry as described previously (Tomic-Canic, et al., Wound Repair Regen., 15(1):71-9 (2007)).
# β-catenin [3] = assay: β-catenin mRNA and protein levels in keratinocytes treated with GCs; type: cell-based
smiles,measurement,setting,value
C[C@@H]1C[C@H]2[C@@H]3CCC4=CC(=O)C=C[C@]4(C)[C@@]3(F)[C@@H](O)C[C@]2(C)[C@@]1(O)C(=O)CO [dexamethasone],GSK3β at mRNA and protein levels,GSK3β,inhibit
same,β-catenin on the protein and mRNA level,β-catenin [1],induce
same,β-catenin phosphorylation,β-catenin [1],almost completely inhibits
same,LEF/TCF-mediated transcription (TopFlash activity),[2],activation
same,epithelialization,wounded human skin,inhibition
same,mRNA or protein levels of β-catenin,β-catenin [3],not affected
